Assay results: patent publication US20020115631A1
No constants are given. Whether binding was seen depends on the method and setting. Some entries that bind do so weakly or less than the wild type. Where a sequence is shown, tags or fusion partners need not be part of it.

Key:
[1] = molecular target: GST-Bcl-2 (human) [GST: P08515]; assay: ELISA (figure legend)
[2] = molecular target: GST-Bcl-2 (human) [GST: P08515]; assay: ELISA, 6HBad coated on the plate, GST fusion in solution, anti-GST detection

B1: 6HBad fusion protein (full length human Bad with N-terminal six residue Histidine tag, construct pET-15 6H Bad) (protein, not shown: small tags and cut ends)
chain: MFQIPEFEPSEQEDSSSAERGLGPSPAGDGPSGSGKHHRQAPGLLWDASHQQEQPTSSSHHGGAGAVEIRSRHSSYPAGTEDDEGMGEEPSPFRGRSRSAPPNLWAAQRYGRELRRMSDEFVDSFKKGLPRPKSAGTATQMRQSSSWTRVFQSWWDRNLGRGSSAPSQ
binding [1]: binds | binding [2]: binds
